# Some of the results follow. Repeats in this data set agree poorly, so a single value says little.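 HEK293T cells were given each compound shortly before transfection with a reporter in which red mCherry is followed by the SARS-CoV-2 frameshift element and then GFP in the −1 frame, so GFP appears only after frameshifting.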
# System: HEK293T
# Test: percent viability (nuclei count) relative to control; higher = more viable cells
# Details: 10 µM; 24 h
row,Compound,percent viability [%]
1,CCCCC(=O)O[C@]1(C(=O)CO)CC[C@H]2[C@@H]3CCC4=CC(=O)CC[C@]4(C)[C@H]3[C@@H](O)C[C@@]21C,223
2,C/N=C(\NC)NCc1ccccc1 [betanidine],244
3,Nc1c2c(nc3ccccc13)CCCC2 [tacrine],303
4,O=C(CCCCCCC(=O)Nc1ccccc1)NO [vorinostat],4.55
5,CCCCn1c(=O)c2c(ncn2CC(C)=O)n(CCCC)c1=O [denbufylline],270
